# Library screen at single concentrations

From ChEMBL document CHEMBL3988442, “University of Dundee, Small-Polar-MMV Screening Library” (2021).

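Cell assay of Leishmania donovani living inside macrophages; the read-out is not stated. Compounds at 30 µM. Direction is inferred from retests: higher values go with stronger inhibition. Of about 69,000 compounds tested this way, about 1,000 (1.5%) reached 50% or more in at least one test.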

The filed quantity is “Percent Effect” (%). The record does not define 0% and 100%; most values in the screen are far below 50% and negative numbers occur (in some assays of this library far below -100). The compounds are a random part of those screened. Two or more numbers in one place are separate tests of the same structure; such repeats can differ widely.

Cc1nnc(CN(C)CC2CCCN2c2cccnn2)o1 (stereo not drawn) gave -1.306%.
CN(C)c1ncc(CN2CCCC(Nc3ccc4c(c3)OCCO4)C2)s1 (stereo not drawn) gave 2.973%.
COCCN(C(=O)c1ccc(OC)cc1)c1ccc(C#N)cc1 gave -24.82%.
Cc1nnn2c1COCC(CNCc1nccs1)C2.O=C(O)C(F)(F)F (stereo not drawn) gave 14.41%.
COc1ccccc1-n1c(O)cc(C)c(C#N)c1=O gave 13.36%.
O=C(O)C(F)(F)F.[H][C@@]12CN(Cc3ccc(F)cc3)C[C@]1([H])C(=O)N(c1cncnc1)C2 gave 1.407%.
CC(C)Cc1ncc(CNc2cnccc2CO)s1 gave 12.15%.
O=C(C1CC1)N1CCC2(CC1)CNCCO2 gave 7.435%.
CC(C)c1nc2n(n1)CC(NCC(=O)N(C)Cc1cccs1)CC2 (stereo not drawn) gave 7.765%.
CO[C@@H]1CCN(C(=O)Cc2cccc(F)c2)[C@H]1Cc1cccnc1.O=C(O)C(F)(F)F gave 18.02%.
Cc1ccc(C)c(C(=O)NCC(c2cccn2C)N2CCCCCC2)c1 (stereo not drawn) gave 12.31%.
CCCOC1CCCN(C(=O)c2ccnc(N3CCN(C)CC3)c2)C1 (stereo not drawn) gave -6.482%.
CCOc1cc(=O)n2c(c1C(=O)OCc1ccc(F)cc1)CCCC2 gave -13.35%.
COc1ncccc1C(=O)NC1(c2cccc(F)c2)CCOCC1 gave -0.1115%.
O=C(O)C(F)(F)F.O=C(O)C(F)(F)F.O=C(O)C(F)(F)F.c1coc(CN2CCC3(CC2)COCCN(CCN2CCCC2)C3)c1 gave 24.58%.
COCCCN(Cc1ccccn1)Cc1ccnn1C1CCCCO1.O=C(O)CC(O)(CC(=O)O)C(=O)O (stereo not drawn) gave -32.09%.
COc1ccc(C[C@H]2CN(C(=O)c3cscn3)CC[C@@H]2OC)cc1 gave -5.257%.
Cc1cnc2c(S(=O)(=O)NC(=O)C(C)OCC3CC3)cccc2c1 (stereo not drawn) gave 13.96%.
COc1ccc(C)cc1CN(Cc1nc(C)c(C)o1)C1CCN(C)C1 (stereo not drawn) gave 15.72%.
CCOC(=O)N1CCN(C(=O)C(C)n2ccnc2C(C)C)CC1 (stereo not drawn) gave 16.45%.
O=S(=O)(CCN1CCN(c2ccccc2O)CC1)c1ccc(Cl)cc1 gave 16.74%.
CCCc1nc(CN(CC)C(=O)c2ccc(S(C)(=O)=O)cc2)no1 gave 16.3%.
CN1CCN(C(=O)c2cccn2C)Cc2cccnc21 gave 3.454%.
CC(Cn1ccnc1)NC(=O)NCc1ccc2c(c1)OCCO2 (stereo not drawn) gave -10.53%.
CCC(C)(C)C(=O)Nc1ccc2ccn(CC(=O)NC)c2c1 gave 4.403%.
CC(C(=O)NC(C)(C)C)N1CCC(C(=O)Nc2cnccn2)CC1 (stereo not drawn) gave 27.55%.
Cc1nc(NCC23CCCN2CCC3)cc(C2CCCNC2)n1 (stereo not drawn) gave 18.57%.
CN1CCC(Cc2nc(-c3cnccn3)n(Cc3ccccc3)n2)CC1 gave 9.663%.
CS(=O)(=O)N1CCCN(CCCSCc2ccccc2)CC1 gave 34.79%.
C=C(C)CN1CCN(Cc2cnc(-c3ccc(OC)cc3)nc2)CC1.O=C(O)CC(O)(CC(=O)O)C(=O)O gave 19.78%.
CC(C)(C)CC(=O)N[C@@H]1CO[C@H](CNC(=O)c2ccncc2)[C@H]1O gave 12.6%.
Cc1cc(C)cc(OCCN(C)Cc2ccc(S(=O)(=O)N(C)C)o2)c1 gave 2.366%.
O=C(O)C(F)(F)F.[H][C@@]12CNC(=O)[C@@H](C)[C@]1([H])CN(CCc1ccccc1)C2 gave 38.09%.
CN(C)[C@@H]1CN(C(=O)COc2cccc(F)c2)C[C@H]1O gave 14.52% and 13.48%.
COC1CCCN(C(=O)NCC(F)F)C1 (stereo not drawn) gave -2.697%.
CCNC(=O)NCc1cccc(N2CC=CC2)c1 gave 11.29%.
Cn1ncc2c1CN(Cc1ccccc1F)CC2COCC1CC1.O=C(O)C(F)(F)F.O=C(O)C(F)(F)F (stereo not drawn) gave 24.46%.
CC(=O)N(C)[C@H]1CC[C@]2(CC1)CNC(=O)c1cc(C)ccc1O2 gave 18.93%.
COCCC(=O)N1CCC(c2ncncc2-c2ccnc(N)c2)C1 (stereo not drawn) gave 1.484%.
COC(=O)c1ccc(C2SCC(=O)Nc3ccsc32)cc1 (stereo not drawn) gave 6.393%.
COC(C)(C)C(=O)N[C@H]1CN(c2nccnc2N(C)C)C[C@@H]1C(C)C gave 11.82%.
O=C(O)C(F)(F)F.[H][C@]12C[C@@H](CN(C)C)N(C(C)=O)[C@@]1([H])CCN(C(=O)c1cccn1C)C2 gave 44.71%.
CSCCC(NC(N)=O)C(=O)NCc1ccc(-n2cccn2)cc1 (stereo not drawn) gave 16.62%.
CS(=O)(=O)NCc1nnc2n1CCN(Cc1cccs1)CC2.O=C(O)C(F)(F)F gave 20.56%.
Cc1cc(C)n(-c2nc(NCCCO)c3c4c(sc3n2)CCCC4)n1 gave 97.76%.
Cc1cc(C)n(C2CCCN(C(=O)Cc3cccs3)C2)n1 (stereo not drawn) gave -33.22%.
CC(C)(NCc1cccc(O)c1)c1ccc2c(c1)OCO2 gave 11.74%.
NC(=O)CCNC(=O)Cc1cccc(I)c1 gave -12.25%.
CCCc1cc(C(=O)N2CCC3(CCCN(CCO)C3=O)C2)cs1 (stereo not drawn) gave -8.678%.
[H][C@]12CC[C@]([H])(CN(Cc3cscn3)C1)N(Cc1cc(CC(C)C)[nH]n1)C2 gave 2.738%.

Once more, the final 5:

{"structure": "Cc1cc(C)n(C2CCCN(C(=O)Cc3cccs3)C2)n1", "stereo": "stereo not drawn", "effect": -33.22}
{"structure": "CC(C)(NCc1cccc(O)c1)c1ccc2c(c1)OCO2", "effect": 11.74}
{"structure": "NC(=O)CCNC(=O)Cc1cccc(I)c1", "effect": -12.25}
{"structure": "CCCc1cc(C(=O)N2CCC3(CCCN(CCO)C3=O)C2)cs1", "stereo": "stereo not drawn", "effect": -8.678}
{"structure": "[H][C@]12CC[C@]([H])(CN(Cc3cscn3)C1)N(Cc1cc(CC(C)C)[nH]n1)C2", "effect": 2.738}